By UniProt entry, the sequences of proteins in these tests, tags left out.
UniProt Q9Y5X4, whole entry R309G: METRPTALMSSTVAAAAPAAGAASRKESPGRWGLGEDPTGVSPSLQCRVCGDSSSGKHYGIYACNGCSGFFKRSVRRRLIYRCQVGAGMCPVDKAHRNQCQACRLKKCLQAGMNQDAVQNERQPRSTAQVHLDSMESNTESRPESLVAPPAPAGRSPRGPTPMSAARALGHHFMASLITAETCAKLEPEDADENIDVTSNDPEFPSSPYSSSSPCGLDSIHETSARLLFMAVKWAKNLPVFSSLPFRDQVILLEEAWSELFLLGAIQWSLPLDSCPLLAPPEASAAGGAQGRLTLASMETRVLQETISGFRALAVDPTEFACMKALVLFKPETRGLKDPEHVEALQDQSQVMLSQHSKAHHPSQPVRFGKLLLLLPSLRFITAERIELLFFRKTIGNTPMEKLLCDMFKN

According to PMC5386588:

What was measured:
Assay in all cases: EMSA
[1] = test system: PPARγ + RXRα; settings: co-expression, supershifted by anti-FLAG; EMSA: HEK293 nuclear extract with 1 µl 32P-labelled probe (100,000 cpm/µl); protein in a lysate after overexpression; protein details: FLAG; label: 5'-32P
[2] = test system: PNR R309G + PPARγ; settings: co-expression, supershifted by anti-PNR or anti-PPARγ/FLAG; EMSA: HEK293 nuclear extract with 1 µl 32P-labelled probe (100,000 cpm/µl); protein in a lysate after overexpression; protein details: N-terminal His6,FLAG; label: 5'-32P
[3] = target: PNR wild type (human) (UniProt Q9Y5X4); settings: supershifted by anti-PNR; EMSA: HEK293 nuclear extract with 1 µl 32P-labelled probe (100,000 cpm/µl); protein in a lysate after overexpression; residues 1-410; protein details: N-terminal His6; label: 5'-32P
[4] = target: PNR R309G (human) (UniProt Q9Y5X4); settings: R309G alone, with or without anti-PNR; EMSA: HEK293 nuclear extract with 1 µl 32P-labelled probe (100,000 cpm/µl); protein in a lysate after overexpression; residues 1-410; protein details: N-terminal His6; label: 5'-32P

Sequence: GGTAAAGGTCAAAGGTCAAT (double strand) [DR1 (PPRE) probe]
- binding result [1]: binds
- binding result [2]: binds
- binding result [3]: binds
- binding result [4]: no binding

The exact form of at least one protein or probe is not confirmed. Where cells or extracts were used, other partners may take part. For some of these results: A negative result means that nothing was seen under these conditions.
